These are yes or no findings as the source states them, for the method shown. Binding seen in cells or lysates may run through a third protein. Some binding calls cover weakened binding; strength is not graded here. Values belong to the molecule of their own block, whether it stands above or below them.
Experiments:
[1] = target: T1, FOXP3 (exogenous, expression construct) (UniProt Q99JB6); assay: co-IP; HEK 293T cells transiently transfected with expression constructs; lysate (NETN300 buffer) on anti-FLAG M2 beads or anti-HA beads, 4°C overnight; washed with 100 mM NaCl IP buffer; western blot with anti-Flag and anti-HA
T1 sequence: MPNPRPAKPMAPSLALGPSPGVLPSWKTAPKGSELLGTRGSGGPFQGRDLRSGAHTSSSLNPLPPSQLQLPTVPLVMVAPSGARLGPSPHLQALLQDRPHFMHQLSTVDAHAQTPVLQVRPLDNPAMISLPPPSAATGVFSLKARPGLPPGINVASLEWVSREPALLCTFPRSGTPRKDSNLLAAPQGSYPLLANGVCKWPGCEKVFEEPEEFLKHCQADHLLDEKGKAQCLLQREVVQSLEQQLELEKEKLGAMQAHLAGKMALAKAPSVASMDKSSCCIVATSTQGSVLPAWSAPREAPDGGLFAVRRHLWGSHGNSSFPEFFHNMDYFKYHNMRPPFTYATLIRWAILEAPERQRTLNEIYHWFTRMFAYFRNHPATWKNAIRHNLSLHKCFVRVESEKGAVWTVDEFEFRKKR

By UniProt entry, the sequences of proteins in these tests, tags left out.
UniProt Q9CWW7: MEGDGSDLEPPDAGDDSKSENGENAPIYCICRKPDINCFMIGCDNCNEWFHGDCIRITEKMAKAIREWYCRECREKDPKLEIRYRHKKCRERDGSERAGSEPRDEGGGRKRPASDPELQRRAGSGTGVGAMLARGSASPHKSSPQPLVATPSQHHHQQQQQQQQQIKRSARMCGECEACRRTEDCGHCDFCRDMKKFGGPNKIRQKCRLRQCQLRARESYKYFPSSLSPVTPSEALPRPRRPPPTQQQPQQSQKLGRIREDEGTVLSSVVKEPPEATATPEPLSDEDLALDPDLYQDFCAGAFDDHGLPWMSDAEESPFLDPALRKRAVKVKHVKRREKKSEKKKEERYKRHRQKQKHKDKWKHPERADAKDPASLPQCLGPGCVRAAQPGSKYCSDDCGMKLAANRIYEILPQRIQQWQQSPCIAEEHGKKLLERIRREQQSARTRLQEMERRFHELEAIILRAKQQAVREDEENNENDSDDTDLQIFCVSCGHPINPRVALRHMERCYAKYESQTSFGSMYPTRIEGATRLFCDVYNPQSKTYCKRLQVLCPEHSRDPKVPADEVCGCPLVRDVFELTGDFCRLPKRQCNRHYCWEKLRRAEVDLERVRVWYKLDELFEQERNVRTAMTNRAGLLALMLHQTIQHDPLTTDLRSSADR

[2] = target: T2, FOXP3 (mouse (endogenous in Treg cells)) (UniProt Q99JB6); assay: co-IP; endogenous proteins, Treg cell lysates (NETN300 buffer, 300 mM NaCl, 0.5% NP-40, pH 8.0); protein G magnetic beads with anti-CXXC1 or anti-FOXP3 antibody, 4°C overnight; washed with 100 mM NaCl IP buffer; forward and reverse; western blot
T2 sequence: T1 sequence

[3] = target: CXXC-finger protein 1 (mouse (endogenous in Treg cells)) (UniProt Q9CWW7); assay: as above
[4] = target: CXXC1 (exogenous, expression construct) (UniProt Q9CWW7); assay: co-IP; HEK 293T cells transiently transfected with expression constructs; lysate (NETN300 buffer) on anti-FLAG M2 beads or anti-HA beads, 4°C overnight; washed with 100 mM NaCl IP buffer; western blot with anti-Flag and anti-HA

binding [1]: binds
Molecule: CXXC1 (exogenous, expression construct) (from UniProt Q9CWW7 1-660)

binding [2]: binds
Molecule: CXXC-finger protein 1 (from UniProt Q9CWW7 1-660)

binding [3]: binds
B1: FOXP3 (protein, UniProt Q99JB6 1-417)
chain: T1 sequence

binding [4]: binds
B2: FOXP3 (exogenous, expression construct) (protein, UniProt Q99JB6 1-417)
chain: T1 sequence
